Values of other authors in patent US5451369A, “Bacteriocidal surfaces and articles with attached bacteriocin” (The State of Oregon Acting By and Through The State Board …, priority 1993, dated 1995).

System: proteolytic and other enzymes
Conditions: cited from earlier work

nisin (ITSISLCTPGCKTGALMGCNMKTATCHCSIHVSK; Lantibiotic nisin-A; UniProt P13068 24-57, looked up)
effect of α-chymotrypsin, pancreatin, and ficin on antimicrobial activity (treatment with α-chymotrypsin, pancreatin, ficin): can destroy the antimicrobial activity | effect of trypsin, pepsin, erepsin, diastase, and carboxypeptidase A on activity (trypsin, pepsin, erepsin, diastase, carboxypeptidase A): do not appear to inactivate
